{"source": "PubChem BioAssay AID1259308 (NCATS, 2017)", "assay": "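Genes whose loss raises luciferase production in HEK293 cells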 (primary screen)", "cell system": "human HEK293 embryonic kidney cells stably expressing firefly luciferase (HEK-CMV-Luc2-Hygro)", "reagent": "single siRNA against human genes, 0.8 pmol siRNA per well", "duration": "72 h", "measured": "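Reporter luminescence and viable-cell signal on separate replicate plates, given as percent of non-targeting control and median/MAD z-scores, plus per-cell luciferase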", "scale": "total luciferase, z-score: higher = more reporter protein produced", "active means": "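Active when the median/MAD z-score for overall luciferase is greater than 3; a gene was taken forward for validation with new siRNAs if at least two of its three siRNAs passed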", "meaning of the calls": "active = raised luciferase; inactive = no rise", "note": "In all, the deposit lists about 59,000 reagents; shown is an unselected part. Over the whole deposit, about 1,510 (2.6%) were called active. 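Calls use total luciferase alone and ignore viability, so some active siRNAs may act by altering cell number.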 The numbers tell different reagents against one gene apart. Not all columns of the deposit are shown."}
The first 2 entries as a preview:
{"gene": "SLC39A8", "reagent": 1, "total luciferase, z-score": -0.086, "activity call": "inactive"}
{"gene": "SLC39A8", "reagent": 2, "total luciferase, z-score": 0.465, "activity call": "inactive"}

The listing, from the first entry:
{"gene": "SLC39A8", "reagent": 1, "total luciferase, z-score": -0.086, "activity call": "inactive"}
{"gene": "SLC39A8", "reagent": 2, "total luciferase, z-score": 0.465, "activity call": "inactive"}
{"gene": "SLC39A8", "reagent": 3, "total luciferase, z-score": -0.73, "activity call": "inactive"}
{"gene": "ATP6V1D", "reagent": 1, "total luciferase, z-score": 1.26, "activity call": "inactive"}
{"gene": "ATP6V1D", "reagent": 2, "total luciferase, z-score": -0.454, "activity call": "inactive"}
{"gene": "ATP6V1D", "reagent": 3, "total luciferase, z-score": 1.33, "activity call": "inactive"}
{"gene": "GSX1", "reagent": 1, "total luciferase, z-score": 2.65, "activity call": "inactive"}
{"gene": "GSX1", "reagent": 2, "total luciferase, z-score": 0.399, "activity call": "inactive"}
{"gene": "GSX1", "reagent": 3, "total luciferase, z-score": -1.65, "activity call": "inactive"}
{"gene": "ZSCAN9", "reagent": 1, "total luciferase, z-score": -0.803, "activity call": "inactive"}
{"gene": "ZSCAN9", "reagent": 2, "total luciferase, z-score": -0.688, "activity call": "inactive"}
{"gene": "ZSCAN9", "reagent": 3, "total luciferase, z-score": -1.54, "activity call": "inactive"}
